Test results: paper PMC12040169 (PLOS Biology, 2025)
The other results are listed elsewhere or left out.

These compounds were tested on T1, CTL2-GFP (C. trachomatis L2/434/Bu, GFP-expressing). Details: bulk GFP, single well; 28.5 h, 10 µM; inhibitor.
T1 construct: L2/434/Bu, GFP-expressing
Set-up: species or system HeLa; Intracellular C. trachomatis growth in HeLa cells, bulk GFP fluorescence relative to DMSO

Row | Structure (SMILES) | % of control remaining
1 | CCn1nc(C)c(-c2cncn2CCCOc2ccccc2C)c1C [CBK281761] | 128.908%
2 | CCNC(=O)N1CC2(CCN(CCOc3ccccc3)CC2)c2ccccc21 [CBK122701] | 99.6486%
3 | Cc1cccc(CN(Cc2ccccc2)C(=O)CCc2ccncc2)n1 [CBK282101] | 137.26%
4 | CC(C)CC(NS(=O)(=O)c1cccc2nsnc12)C(=O)O (stereo not drawn) [CBK217288] | 116.517%
5 | CN(C)CC(C)(C)CNC(=O)c1cc(-c2ccc(Cl)cc2)on1 [CBK116561] | 111.204%
6 | Cc1cc(CN(C)C(=O)c2cccc(NC(=O)C3CCCCC3)c2)no1 [CBK305722] | 95.5162%
7 | NS(=O)(=O)c1ccc(CCNC2CC(=O)N(Cc3ccccc3)C2=O)cc1 (stereo not drawn) [CBK267439] | 135.227%
8 | Cn1nnc2cc(NCC34CC3CN(C(=O)OC(C)(C)C)C4)ccc21 (stereo not drawn) [CBK304758] | 104.468%
9 | Cc1[nH]c2cccc(C(=O)N(C)CCc3cn[nH]c3)c2c1C [CBK283070] | 125.028%
10 | N#Cc1cccc(CN2C[C@H](O)C[C@H]2c2nc(Cc3ccccc3)no2)c1 [CBK288842] | 140.884%
11 | O=C(CSc1ccc2nnc(-c3ccc(F)cc3)n2n1)N1CCCCC1 [CBK287520] | 140.386%
12 | CN(C)CC1CCCCN1C(=O)C1CC(=O)N(c2cccc(F)c2)C1 (stereo not drawn) [CBK282192] | 48.5002%
13 | CCOC(=O)N1CCC(NS(=O)(=O)c2ccc3c(c2)oc(=O)n3C)CC1 [CBK304666] | 111.992%
14 | NNc1ccc(/C=C/c2ccc(NN)cc2S(=O)(=O)O)c(S(=O)(=O)O)c1 [CBK278163N] | 124.201%
15 | Cc1nc(C)n(CC2CCCN(S(=O)(=O)c3cnc4ccsc4c3)C2)n1 (stereo not drawn) [CBK306274] | 78.9519%
16 | Cc1ccc(C)c(C(C)NC(=O)C2CCCN(S(C)(=O)=O)C2)c1 (stereo not drawn) [CBK304672] | 104.831%
17 | O=C1c2ccccc2C(=O)N1CCCc1nn2c(-c3cccnc3)nnc2s1 [CBK270140] | 142.693%
18 | O=C(CCn1cnc2ccccc2c1=O)Nc1ccc(Cl)c(Cl)c1 [CBK266738] | 143.009%
19 | Nc1nnc(SCC(=O)NCc2ccc3c(c2)OCO3)s1 [CBK267853] | 115.793%
20 | CO[C@H]1CC[C@H](C(=O)NC(Cc2ccsc2)c2cccnc2)CC1 (stereo partly drawn) [CBK285114] | 94.9559%
21 | C=CCn1c(Cc2csc(NC(=O)c3cc(C)cc(C)c3)n2)n[nH]c1=S [CBK295358] | 161.17%

Row | Structure (SMILES) | % of control remaining
22 | CC(C)(C)OC(=O)NCc1ccc(-c2nnc(CC(=O)O)o2)cc1 [CBK169899D] | 116.644%
23 | Cc1ccc(C2SCC(C(=O)O)N2C(=O)c2cccc(Cl)c2)cc1 (stereo not drawn) [CBK286931] | 156.465%
24 | COc1ccc(CNc2cncc(-c3ccc(C(C)C)cc3)n2)cc1 [CBK065514] | 97.0073%
25 | CC(=O)NCCOc1nccnc1OCc1ccc(Cl)c(Cl)c1 [CBK161582] | 124.063%
26 | NC(=O)c1ccc(-c2cncc(N3CCN(CCO)CC3)n2)cc1 [CBK065392] | 125.307%
27 | CCN1CC2(CCNCC2)c2ccccc21 [CBK116520] | 109.702%
28 | O=C(NCCn1cccn1)c1ncoc1-c1ccc(F)cc1 [CBK282355] | 149.764%
29 | CN(C)CC(O)c1cc2n(n1)CCCN(CC(=O)NCc1cccs1)C2 (stereo not drawn) [CBK306738] | 130.755%
30 | O=C1NC(=O)C(CC(=O)N2CCC3(CC2)CC(=O)c2cc(Cl)ccc2O3)N1 (stereo not drawn) [CBK156485] | 99.1794%
31 | CNC(=O)Nc1ccccc1NC(=O)NC [CBK261401] | 114.663%
32 | CCc1nn(CC(=O)N(C)C)c(=O)c2cc3oc(C)cc3n12 [CBK283576] | 111.595%
33 | Cc1cc(=O)n2c(-c3ccc(NS(=O)(=O)c4cccnc4)cc3)csc2n1 [CBK287837] | 111.987%
34 | Cn1cc(-c2nc(C3COCCN3Cc3ccc(F)cc3)no2)cn1 (stereo not drawn) [CBK305391] | 122.033%
35 | O=C(NCCCN1CCOCC1)c1ccc(/C=N/O)nc1 [CBK264468] | 130.899%
36 | Cc1ccc(C(C)C)c(OCC(=O)Nc2ccc(F)c([N+](=O)[O-])c2)c1 [CBK263771] | 61.9874%
37 | COc1ccc(-n2ncc(-c3ccc(C(F)(F)F)cc3)n2)cc1 [CBK112688] | 125.169%
38 | O=C(NCCc1ccccc1)Nc1cc2cccnc2c(Br)n1 [CBK063283] | 64.8619%
39 | Cc1nc(CCCn2cnc3cnccc3c2=O)sc1C [CBK306610] | 95.4564%
40 | CN(C)CC(C)(C)CNC1CCN(C)CC1 [CBK261926] | 113.514%
41 | Fc1ccc(OCCNCCC2NCCc3c2[nH]c2ccccc32)cc1 (stereo not drawn) [CBK066970] | 100%
42 | O=S(=O)(c1cccc2nsnc12)N1CCCN(Cc2ccsc2)CC1 [CBK038570] | 95.9135%

As entered above.
`CCn1nc(C)c(-c2cncn2CCCOc2ccccc2C)c1C` [CBK281761] | % of control remaining: 128.908%
`CNC(=O)Nc1ccccc1NC(=O)NC` [CBK261401] | % of control remaining: 114.663%
`Cc1ccc(C2SCC(C(=O)O)N2C(=O)c2cccc(Cl)c2)cc1` (stereo not drawn) [CBK286931] | % of control remaining: 156.465%
`CN(C)CC(C)(C)CNC1CCN(C)CC1` [CBK261926] | % of control remaining: 113.514%

Remaining list, next part

Row | Structure (SMILES) | % of control remaining
43 | N#CC1=C(SCc2ccccc2)SC(c2ccc(O)c(O)c2)NC1=O (stereo not drawn) [CBK293972] | 121.596%
44 | CC(Oc1ccc(Br)cc1Cl)C(=O)NCCCN1CCCC1=O (stereo not drawn) [CBK268138] | 79.7573%
45 | Cc1cc2c(cc3c(=O)n(CCN4CCCC4)nc(C)n32)s1 [CBK284126] | 147.783%
46 | COc1cc2cc(C(=O)N3CCN(Cc4ccc5c(c4)OCO5)CC3)c(=O)oc2cc1OC [CBK074790] | 113.065%
47 | Cc1ccc(COc2ccc(/C=N/NC(=O)CN3CCCCC3)cc2)cc1 [CBK262227] | 96.4195%
48 | O=C(NCCc1nc2ccccc2[nH]1)Nc1ccccc1 [CBK261803] | 106.167%
49 | COC(=O)[C@H]1CCc2ccccc2N1C(C)=O [CBK284256] | 110.256%
50 | CCN(CC)C(=O)/C=C/c1ccc(C(C)C)cc1 [CBK149636] | 112.541%
51 | O=C(c1ccccc1Cl)c1cc(Cl)ccc1-n1ccnc1 [CBK005151] | 85.5646%
52 | CN(C)CCCOC(=O)CN1c2ccccc2CCc2ccccc21 [CBK022863C] | 123.054%
53 | Cn1c(=O)c(C(N)=O)c(O)c2ccccc21 [CBK027440] | 100%
54 | CCNC(=O)C1(Cc2ccc(-c3cccs3)cc2)CCN(C(=O)c2ccccc2)CC1 [CBK285794] | 149.136%
55 | CCOc1ccc(N(CC(=O)O)S(=O)(=O)c2ccc(SC)cc2)cc1 [CBK263764] | 122.83%
56 | CNC(=O)c1ccc(OC)c(S(=O)(=O)NC)c1 [CBK270153] | 154.661%
57 | Cc1ccc(Cn2c(=N)n(CC(=O)c3cc(C(C)(C)C)c(O)c(C(C)(C)C)c3)c3ccccc32)cc1 [CBK262458B] | 14.7302%
58 | O=C1C2C3C=CC(C3)C2C(=O)N1CCNCCO (stereo not drawn) [CBK264414] | 142.414%
59 | Cc1nccn1CC(=O)N1CCCC(C)(C(=O)NC2CCCC2)C1 (stereo not drawn) [CBK282210] | 123.518%
60 | CCOC(=O)c1ccc(N2C(=O)CC(N3CCN(c4cccc(OC)c4)CC3)C2=O)cc1 (stereo not drawn) [CBK265396] | 100%
61 | CC(C)(C)c1ccc([S+]([O-])c2cncc(N3CCNCC3)n2)cc1 (stereo not drawn) [CBK051434C] | 101.992%
62 | Cc1cc(C)c2c(c1)C1(C(=O)N2)C(C#N)=C(N)Oc2[nH]nc(-c3ccccc3)c21 (stereo not drawn) [CBK267367] | 150.035%
63 | CC(C)c1nn(CN(C)Cc2ccccc2)c(=S)[nH]1 [CBK295166] | 148.528%

Rewritten with each value named: 2 of the compounds above.
Cc1cc2c(cc3c(=O)n(CCN4CCCC4)nc(C)n32)s1 [CBK284126]
  % of control remaining: 147.783%
COC(=O)[C@H]1CCc2ccccc2N1C(C)=O [CBK284256]
  % of control remaining: 110.256%

(cont.)

Row | Structure (SMILES) | % of control remaining
64 | CN1CCC(Oc2nc3ccccc3nc2C(F)(F)F)CC1 [CBK113299] | 102%
65 | Cc1ccc(OCCNC(=O)C(C)Cn2cccn2)cc1 (stereo not drawn) [CBK283252] | 78.7399%
66 | Cc1nccn1CCCNC(=O)c1ccc(N2CCCC2)cc1 [CBK281589] | 147.82%
67 | N#Cc1c(CN2CCCC(c3noc(C4CC4)n3)C2)cn2ccccc12 (stereo not drawn) [CBK305332] | 122%
68 | O=C(NCCc1c[nH]cn1)NC1CCCCC1 [CBK269975] | 118.255%
69 | COc1ccccc1C(=O)NCC(=O)N/N=C/c1ccc(N(C)C)cc1 [CBK261989] | 103.953%
70 | COc1cc(OC)nc(CN2C(=O)C3(CC(=O)N(C)C3=O)c3cc(F)ccc32)n1 (stereo not drawn) [CBK075475] | 89.2466%
71 | CN(C)c1nc(NCc2ccccc2)nc(SCC(=O)Nc2ccccc2)n1 [CBK268810] | 99.4615%
72 | CCOC(=O)c1[nH]c2ccccc2c1NC(=O)[C@@H]1CCCN1C [CBK160171T] | 110.847%
73 | CN(C)CCN(Cc1ccccc1)C(=O)NCc1ccc(Cl)cc1 [CBK155106] | 104.237%
74 | Nc1nnc(Sc2ccc([N+](=O)[O-])c3nonc23)s1 [CBK266712] | 100%
75 | O=C(O)CCc1ccc(-c2ccc(Nc3cccnc3)nc2)cc1 [CBK037768] | 172.624%
76 | CCCC(=O)N1C2CCC1c1cnc3cc(-c4ccco4)nn3c1C2 (stereo not drawn) [CBK284383] | 117.636%
77 | CN(C)CCN(Cc1ccccc1)C(=O)NCc1c(Cl)cccc1Cl [CBK155107] | 101.904%
78 | CC(NC(=O)CCn1cncn1)c1cccs1 (stereo not drawn) [CBK282199] | 151.717%
79 | Cc1cc2c(cc1Br)NC(=O)/C2=N\O [CBK288453] | 94.6323%
80 | COc1ccc(-c2cc(=O)oc3cc(OCC(=O)c4cc5ccccc5o4)ccc23)cc1 [CBK265634] | 127.471%
81 | Nc1ccc(-c2cncc(N3CCN(c4ccncc4)CC3)n2)cc1 [CBK065681] | 111.363%
